The assay deals with A549 cells. Kind of assay: Anti-cancer agents with or without CBD, WST-8 cell survival. It is filed as cell-based. The conditions noted are these: Homo sapiens; A549, 48 h, with CBD (15 μM). The procedure:
After completion of culture, 1/10 of WST-8 solution (Quanti-Max™, BIOMAX, Korea) was added to the medium, and after additional culture at 37° C. for 1 hour, the cell survival rate was determined by measuring absorbance at 450 nm, and expressed as a percentage of the control without any treatment. The experiment was conducted independently and repeated three times.

One compound from patent US20240009211A1, “PHARMACEUTICAL COMPOSITION FOR TREATMENT OF LUNG CANCER COMPRISING CANNABIDIOL AND ANTICANCER AGENT AS ACTIVE INGREDIENTS, AND USE THEREOF” (NEOCANNBIO CO., LTD., priority 2022, published 2024) can be followed below.

The IC50 is the midpoint of a concentration-inhibition curve. Low readings indicate greater potency in that assay, high ones weaker potency in that assay. `CC/C(=C(\c1ccccc1)c1ccc(OCCN(C)C)cc1)c1ccccc1` [Tamoxifen] displayed an IC50 of 16.7 µM.
